PubChem BioAssay AID652243 – Drosophila RNAi Screening Center – 2013

Screen: 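Fly genes required for human androgen receptor driven transcription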 (primary screen)
Cell system: Drosophila S2R+ cells
Reagents: long dsRNA against Drosophila genes
Duration: 72 h (48 h, then 24 h hormone)
Treatment: synthetic androgen R1881 at 10 nM for 24 h
Measurement: 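Firefly light from an androgen-responsive reporter and Renilla control light per well, raw and unnormalised, for each of two replicates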
Direction: firefly reporter light: higher = more light from androgen-responsive reporter; Renilla control light: higher = more constitutive control signal (cell number, transfection)
Call rule: 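Hit when the log firefly-to-Renilla ratio dropped or increased by a fixed fold versus the mean of GFP or LacZ controls across duplicate plates; lowering cut given as 1.5 and as 3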
Meaning of the calls: active = hit: reporter lowered or raised; inactive = no hit
In all, the deposit lists about 24,000 reagents; below is a random part of those with a known target gene and a result. Of all reagents, 246 (1%) are marked active. 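Plates not normalised; calls are printed but the firefly/Renilla ratio behind them is not deposited; fold cut for lowering reported inconsistently.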 Raw values vary from plate to plate and are shown uncorrected. Not stated in the record: the amount of reagent.

| gene knocked down | amplicon | firefly reporter light, replicate 1 | firefly reporter light, replicate 2 | Renilla control light, replicate 1 | Renilla control light, replicate 2 | outcome |
| --- | --- | --- | --- | --- | --- | --- |
| CG31937 | DRSC00514 | 1.03e6 | 1.27e6 | 2.22e6 | 2.01e6 | inactive |
| CG32040 | DRSC22459 | 3.80e5 | 7.68e5 | 8.23e5 | 1.75e6 | inactive |
| term | DRSC21730 | 7.20e5 | 5.96e5 | 1.78e6 | 2.11e6 | inactive |
| CG1572 | DRSC19686 | 1.56e5 | 2.31e5 | 1.11e6 | 1.25e6 | inactive |
| neo | DRSC16316 | 52866 | 26609 | 5.72e5 | 3.52e5 | inactive |
| neo | DRSC24164 | 6.21e5 | 6.64e5 | 9.64e5 | 9.51e5 | inactive |
| Cpr65Ea | DRSC11027 | 2.19e5 | 1.20e5 | 2.56e6 | 1.97e6 | inactive |
| Cpr65Ea | DRSC25692 | 7.02e5 | 7.58e5 | 1.06e6 | 1.13e6 | inactive |
| Cdc50 | DRSC20224 | 4.43e5 | 5.40e5 | 3.14e6 | 3.17e6 | inactive |
| CG15631 | DRSC00466 | 91618 | 1.56e5 | 6.78e5 | 1.04e6 | inactive |
| CG42336 | DRSC05273 | 1.65e5 | 1.48e5 | 2.61e5 | 3.17e5 | inactive |
| CG42336 | DRSC06332 | 2.55e5 | 93879 | 1.41e6 | 9.20e5 | inactive |
| CG42336 | DRSC06333 | 2.73e5 | 2.26e5 | 2.20e6 | 2.15e6 | inactive |
| CG42336 | DRSC28729 | 4.77e5 | 4.60e5 | 1.42e6 | 1.65e6 | inactive |
| CG42336 | DRSC29534 | 3.35e5 | 3.28e5 | 8.60e5 | 8.60e5 | inactive |
| MED7 | DRSC16059 | 1.25e5 | 1.29e5 | 2.68e6 | 2.01e6 | inactive |
| MED7 | DRSC29232 | 2.68e5 | 3.26e5 | 7.44e5 | 5.87e5 | inactive |
| CG15615 | DRSC06568 | 67921 | 78667 | 1.06e6 | 1.06e6 | inactive |
| CG15615 | DRSC29555 | 3.83e5 | 5.18e5 | 7.02e5 | 7.02e5 | inactive |
| Dhc36C | DRSC03315 | 1.49e5 | 1.91e5 | 1.94e6 | 2.25e6 | inactive |

Targets above whose target name begins with N or n:
| gene knocked down | amplicon | firefly reporter light, replicate 1 | firefly reporter light, replicate 2 | Renilla control light, replicate 1 | Renilla control light, replicate 2 | outcome |
| --- | --- | --- | --- | --- | --- | --- |
| neo | DRSC16316 | 52866 | 26609 | 5.72e5 | 3.52e5 | inactive |
| neo | DRSC24164 | 6.21e5 | 6.64e5 | 9.64e5 | 9.51e5 | inactive |

More entries follow.
| gene knocked down | amplicon | firefly reporter light, replicate 1 | firefly reporter light, replicate 2 | Renilla control light, replicate 1 | Renilla control light, replicate 2 | outcome |
| --- | --- | --- | --- | --- | --- | --- |
| Ugt35E2 | DRSC16083 | 1.61e5 | 1.48e5 | 1.79e6 | 2.02e6 | inactive |
| Ugt35E2 | DRSC27356 | 3.43e5 | 3.70e5 | 8.47e5 | 8.33e5 | inactive |
| Ugt36D1 | DRSC02600 | 9.27e5 | 8.41e5 | 1.43e6 | 1.65e6 | inactive |
| Paf-AHalpha | DRSC20267 | 6.25e5 | 6.19e5 | 4.25e6 | 2.43e6 | inactive |
| mRpL15 | DRSC11771 | 88177 | 23519 | 4.15e5 | 2.27e5 | inactive |
| mRpL15 | DRSC24402 | 3.62e5 | 3.38e5 | 5.05e5 | 5.39e5 | inactive |
| RpS26 | DRSC03420 | 1.42e5 | 1.80e5 | 9.50e5 | 9.77e5 | inactive |
| lmd | DRSC15618 | 54824 | 59960 | 3.83e5 | 4.87e5 | inactive |
| lmd | DRSC29194 | 5.28e5 | 4.08e5 | 1.01e6 | 9.86e5 | inactive |
| slow | DRSC08589 | 1.11e6 | 7.09e5 | 1.23e6 | 1.51e6 | inactive |
| slow | DRSC08590 | 68539 | 87773 | 1.38e6 | 1.43e6 | inactive |
| slow | DRSC26083 | 3.21e5 | 2.59e5 | 6.70e5 | 7.67e5 | inactive |
| CG3191 | DRSC18530 | 5.44e5 | 7.12e5 | 1.70e6 | 2.01e6 | inactive |
| CG3191 | DRSC29390 | 3.87e5 | 5.43e5 | 9.67e5 | 9.67e5 | inactive |
| Smu1 | DRSC15803 | 88166 | 49196 | 5.82e5 | 4.29e5 | inactive |
| Dhdds | DRSC17756 | 3.00e5 | 2.66e5 | 2.16e6 | 2.51e6 | inactive |
| Dhdds | DRSC29011 | 3.98e5 | 3.12e5 | 7.82e5 | 6.81e5 | inactive |
| CG12693 | DRSC17882 | 1.72e5 | 2.06e5 | 2.78e6 | 2.77e6 | inactive |
| CG42355 | DRSC07967 | 1.68e5 | 1.51e5 | 2.75e5 | 2.38e5 | inactive |
| Or63a | DRSC08681 | 1.50e5 | 1.84e5 | 2.97e6 | 3.29e6 | inactive |
| CG5909 | DRSC15914 | 1.04e5 | 1.41e5 | 1.79e6 | 2.37e6 | inactive |
| CG5909 | DRSC27750 | 5.34e5 | 5.54e5 | 8.30e5 | 9.13e5 | inactive |
| ath | DRSC02788 | 1.22e5 | 1.78e5 | 7.46e5 | 9.20e5 | inactive |
| CG6144 | DRSC02934 | 5.24e5 | 4.43e5 | 3.23e6 | 3.20e6 | inactive |
| CG33332 | DRSC15504 | 97051 | 1.36e5 | 1.97e6 | 1.18e6 | inactive |
| CG33332 | DRSC27661 | 3.50e5 | 3.30e5 | 3.64e5 | 6.53e5 | inactive |
| CG5071 | DRSC15710 | 2.45e5 | 2.96e5 | 3.18e6 | 2.62e6 | inactive |
| CG5071 | DRSC22570 | 5.63e5 | 5.80e5 | 1.27e6 | 1.45e6 | inactive |
| CG5071 | DRSC24514 | 4.35e5 | 8.36e5 | 6.02e5 | 8.39e5 | inactive |
| Dref | DRSC03319 | 7.21e5 | 1.07e6 | 5.35e5 | 7.58e5 | inactive |
| CG34435 | DRSC18086 | 3.15e5 | 2.74e5 | 2.63e6 | 2.12e6 | inactive |
| CG2082 | DRSC12125 | 84147 | 61770 | 4.35e5 | 3.35e5 | inactive |
| CG2082 | DRSC26456 | 4.30e5 | 4.43e5 | 6.88e5 | 7.20e5 | inactive |
| CG10077 | DRSC09691 | 8.91e5 | 7.84e5 | 7.84e5 | 8.63e5 | inactive |
| CG10077 | DRSC24756 | 8.39e5 | 9.21e5 | 8.29e5 | 7.80e5 | inactive |
| CG18764 | DRSC15391 | 1.14e5 | 1.93e5 | 1.52e6 | 1.41e6 | inactive |
| Uhg1 | DRSC26214 | 2.88e5 | 3.54e5 | 7.72e5 | 4.75e5 | inactive |
| CG16798 | DRSC02517 | 1.21e5 | 89684 | 1.04e6 | 7.79e5 | inactive |
